Screening data

Data taken from PubChem BioAssay AID912, deposited by NCATS (2007).

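Uptake of anthrax lethal toxin into cultured cells, read by FRET (460/530 nm ratio) and reported from the 460 nm channel; the cell line is not named here.
Each compound was tested as a concentration series from about 0.0005 to 40 µM.
The number is the fitted AC50 of the 460 nm signal alone; lower values mean a more potent effect. A falling signal goes with compounds filed as inhibitors or cytotoxic, a rising one with activators or fluorescent compounds (inferred from the filed classes).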

Values are in µM.
Common to all entries: measured here: 460 nm channel.
Part of the compounds only, not a random draw; the main read-out is not listed here.
A potency from a partial, single-point or poor curve is only a rough figure.
The first word of each remark tells which way the curve ran; it can be opposite to the aim of the assay.

| SMILES | AC50 (µM) | curve as filed |
|---|---|---|
| `O=C(NCCSc1c[nH]c2ccccc12)c1ccc(Br)o1` | 12.59 | falling, partial curve |
| `COc1ccc(CC(=O)Nc2ccc(N3CCN(c4ccc(OC)cc4)CC3)c(C#N)c2)cc1` | 7.943 | falling, partial curve |
| `Cc1cc(C(=O)Nc2c(F)cc(F)cc2Br)c(C)o1` | 1.995 | rising, single point |
| `COC(=O)c1[nH]c2ccc(C)cc2c1NC(=O)CN1CCN(c2ccc(F)cc2)CC1` | 0.01995 | falling, full curve, poor fit |
| `CNC(=O)c1nnn(-c2ccccc2)c1C(=O)NC` | 0.3162 | falling, full curve |
| `CCOc1ccc(S(=O)(=O)N2CCN(c3ccc(C)cc3C)CC2)cc1` | 10 | falling, partial curve |
| `[CH3][Hg][Cl]` | 3.162 | falling, full curve |
| `COc1cccc(C(=O)Nc2cccc(-c3nnc(-c4ccccc4)o3)c2)c1` | 2.512 | falling, full curve |
| `O=[N+]([O-])c1ccc(Cl)c(CNc2ncnc3c2ncn3[C@@H]2CCCCO2)c1` | 1 | falling, single point |
| `Cc1oc2c(c1C(=O)NCc1ccccc1)CCCC2` | 0.1585 | falling, full curve |
| `COc1ccc(C(CNC(=O)c2ccc(-n3cnnn3)cc2)N2CCOCC2)cc1` (stereo unspecified) | 0.01259 | falling, full curve, poor fit |
| `Cc1[nH]c2ccccc2c1C(=O)CN1CCCCC1C` (stereo unspecified) | 1.995 | falling, full curve |
| `CCc1[nH]nc2c1C1(CCOC1C)C(C#N)=C(N)O2` (stereo unspecified) | 5.012 | rising, single point |
| `CCN(CC)CCOc1ncnc2c1oc1ccccc12` | 3.162 | falling, single point |
| `CN(C)c1ccc(-c2ccc3ncnc(NCc4ccccc4)c3c2)cc1` | 31.62 | falling, single point |
| `N#Cc1nc(-c2ccc(OCc3ccc(Cl)cc3)cc2)oc1NCc1cccnc1` | 31.62 | falling, single point |
| `O=C1CCCN1CN(C(=O)c1ccc2c(c1)OCO2)c1ccc(F)cc1` | 0.003981 | falling, full curve, poor fit |
| `NS(=O)(=O)c1ccc(N=Nc2cc3ccccc3c(C(=O)O)c2O)cc1` | 3.981 | rising, single point |
| `CC(=O)N1CCC2(CCCN(c3cccc(-c4ccccc4)c3)C2)CC1` | 19.95 | falling, partial curve, poor fit |
| `CC(c1ccco1)N(C(=O)COc1ccc(Cl)cc1)c1ccccn1` (stereo unspecified) | 31.62 | falling, single point |
| `Clc1cccc(N2CCNCC2)c1` | 2.512 | falling, single point |
| `c1cnn(-c2nc(N3CCOCC3)nc(N3CCOCC3)n2)c1` | 3.981 | falling, partial curve |
| `OCCCCNc1cccc2ccccc12` | 12.59 | rising, single point |
| `Cc1c(C(=O)NCc2ccccn2)sc2nc(-c3ccc(F)cc3)cn12` | 5.012 | rising, single point |
| `CC(=O)c1ccc(N2CCN(C(=O)CCCn3c(=S)[nH]c4cc5c(cc4c3=O)OCO5)CC2)cc1` | 3.162 | rising, full curve |
| `COc1cccc(Cn2c(=O)c(CCc3ccccc3)nc3cnc(N4CCOCC4)nc32)c1` | 12.59 | rising, partial curve |
| `CC(C)CC(=O)N=C1SC2CS(=O)(=O)CC2N1CCc1ccccc1` (stereo unspecified) | 1.995 | rising, single point |
| `O=C(Nc1nc2ccc(S(=O)(=O)N3CCCC3)cc2s1)C1CCCCC1` | 1.995 | rising, partial curve, poor fit |
| `Cn1c(N)c(C(=O)COC(=O)C2(c3ccc(F)cc3)CCCC2)c(=O)n(C)c1=O` | 5.012 | rising, single point |
| `CCOC(=O)c1c(C)oc(NC(=O)COc2ccc(Cl)cc2C)c1C#N` | 12.59 | falling, single point |
| `N#Cc1c(NC(=O)c2cc(C3CC3)on2)sc2c1CCC2` | 10 | falling, partial curve |
| `COC(=O)CSc1nsc(SCC(=O)OC)n1` | 12.59 | rising, single point |
| `Nc1c2ccccc2nc2ccccc12` | 12.59 | rising, partial curve |
| `CCCCCCO` | 31.62 | falling, single point |
| `Cc1ccc(C)c(N2CCN(C(=O)CCCn3c(=S)[nH]c4cc5c(cc4c3=O)OCO5)CC2)c1` | 3.981 | rising, full curve |
| `COCCOC(=O)c1c(C)oc2ccc(O)c(CN3CCC(C)CC3)c12` | 10 | falling, partial curve |
| `CN(C)C(=O)c1ccc(-c2ccc3ncnc(NCc4cccnc4)c3c2)cc1` | 1.995 | falling, partial curve |
| `C=C1CC[C@@H]2O[C@]2(C)CC[C@@H]2[C@H]1CC2(C)C` | 15.85 | rising, partial curve, poor fit |
| `CCCc1cc(C(=O)Cc2ccc(C(=O)OCC)o2)c(O)cc1O` | 12.59 | falling, partial curve |

4 of the entries, repeated:

SMILES,AC50 (µM),curve as filed
CNC(=O)c1nnn(-c2ccccc2)c1C(=O)NC,0.3162,"falling, full curve"
c1cnn(-c2nc(N3CCOCC3)nc(N3CCOCC3)n2)c1,3.981,"falling, partial curve"
CC(=O)c1ccc(N2CCN(C(=O)CCCn3c(=S)[nH]c4cc5c(cc4c3=O)OCO5)CC2)cc1,3.162,"rising, full curve"
CC(=O)N1CCC2(CCCN(c3cccc(-c4ccccc4)c3)C2)CC1,19.95,"falling, partial curve, poor fit"